{"sequences": {"note": "By UniProt entry, the sequences of proteins in these tests, tags left out. Where a name states a change or a piece, a line headed by the entry shows the natural chain unless it says otherwise.", "UniProt Q969H0": "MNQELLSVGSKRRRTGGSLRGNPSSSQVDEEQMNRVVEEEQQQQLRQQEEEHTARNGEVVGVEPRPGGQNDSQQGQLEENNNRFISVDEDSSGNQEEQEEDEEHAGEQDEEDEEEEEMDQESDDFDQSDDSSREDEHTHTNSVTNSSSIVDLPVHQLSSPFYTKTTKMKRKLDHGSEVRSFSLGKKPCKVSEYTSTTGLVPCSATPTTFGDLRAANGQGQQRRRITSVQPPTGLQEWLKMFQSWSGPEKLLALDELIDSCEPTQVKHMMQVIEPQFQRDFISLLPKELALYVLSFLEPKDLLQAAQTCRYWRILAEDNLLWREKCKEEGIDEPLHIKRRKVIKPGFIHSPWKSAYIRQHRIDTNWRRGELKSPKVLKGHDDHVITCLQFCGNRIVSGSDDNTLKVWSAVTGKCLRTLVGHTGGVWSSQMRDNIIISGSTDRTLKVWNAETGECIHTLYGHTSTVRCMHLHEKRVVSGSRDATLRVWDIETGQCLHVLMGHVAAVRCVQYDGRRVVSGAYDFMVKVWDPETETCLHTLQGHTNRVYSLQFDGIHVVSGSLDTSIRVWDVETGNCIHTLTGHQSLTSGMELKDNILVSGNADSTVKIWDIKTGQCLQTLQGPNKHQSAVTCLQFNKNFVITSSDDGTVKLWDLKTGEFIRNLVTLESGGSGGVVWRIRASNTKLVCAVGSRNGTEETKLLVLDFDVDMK"}, "source": "paper PMC11047997", "molecular_target": "T1, Flag-IL-17RA full-length (human) (UniProt Q96F46)", "T1 sequence": "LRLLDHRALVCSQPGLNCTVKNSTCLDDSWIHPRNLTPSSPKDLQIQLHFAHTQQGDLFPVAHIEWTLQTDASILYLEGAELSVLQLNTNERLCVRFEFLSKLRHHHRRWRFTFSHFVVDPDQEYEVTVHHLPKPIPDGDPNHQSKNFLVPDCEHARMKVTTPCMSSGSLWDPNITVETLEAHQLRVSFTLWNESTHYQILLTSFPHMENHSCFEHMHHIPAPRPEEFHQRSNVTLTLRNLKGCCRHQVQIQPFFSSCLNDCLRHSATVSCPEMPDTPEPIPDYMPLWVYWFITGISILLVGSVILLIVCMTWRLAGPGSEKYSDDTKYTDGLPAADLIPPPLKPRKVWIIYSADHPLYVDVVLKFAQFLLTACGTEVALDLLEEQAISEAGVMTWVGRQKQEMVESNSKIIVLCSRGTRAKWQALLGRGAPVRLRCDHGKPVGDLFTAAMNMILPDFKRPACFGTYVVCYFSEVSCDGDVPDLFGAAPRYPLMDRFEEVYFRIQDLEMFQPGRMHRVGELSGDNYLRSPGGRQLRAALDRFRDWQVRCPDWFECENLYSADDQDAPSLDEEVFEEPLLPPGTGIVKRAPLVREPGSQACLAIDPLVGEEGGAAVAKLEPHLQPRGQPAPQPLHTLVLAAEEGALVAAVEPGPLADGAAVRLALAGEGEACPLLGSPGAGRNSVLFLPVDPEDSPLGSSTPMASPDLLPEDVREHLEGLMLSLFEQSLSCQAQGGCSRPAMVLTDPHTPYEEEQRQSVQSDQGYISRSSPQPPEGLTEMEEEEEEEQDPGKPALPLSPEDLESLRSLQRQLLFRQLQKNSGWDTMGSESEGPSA", "assay": "co-IP; HEK293T cells co-transfected, lysed 48 h later in IP lysis buffer (50 mM Tris-HCl pH 7.5, 0.5% Nonidet P-40, 1 mM EDTA, 150 mM NaCl, 1 mM DTT); immunoprecipitation with anti-Flag M2, anti-c-Myc or anti-FBXW7 antibody and rProtein A agarose at 4 °C overnight; Western blot; reciprocal in Figure 2", "note": "Results are given in words; binding and its absence hold for the method and conditions named. Binding seen in cells or lysates may run through a third protein. Binding calls can cover weak binding; strength is not graded here. Tags and fused reporters may be left off the sequences shown."}
{"substance": "Myc-FBXW7 ∆F box (from UniProt Q969H0) (enzyme)", "values": [{"measurement": "binding", "result": "binds"}]}
